Measurements reported in the supplement of paper PMC11732987, “Enantioselective OTUD7B fragment discovery through chemoproteomics screening and high-throughput optimisation” (Communications Chemistry, 2025).
The other results are listed elsewhere or left out. The data scatter; read single values as rough.

Chains of the proteins cited; added tags and fusions are not shown. Lines headed by an entry give the natural chain unless they say otherwise; changes in a name come on top. Residues count along the entry.
UniProt A6NDG6: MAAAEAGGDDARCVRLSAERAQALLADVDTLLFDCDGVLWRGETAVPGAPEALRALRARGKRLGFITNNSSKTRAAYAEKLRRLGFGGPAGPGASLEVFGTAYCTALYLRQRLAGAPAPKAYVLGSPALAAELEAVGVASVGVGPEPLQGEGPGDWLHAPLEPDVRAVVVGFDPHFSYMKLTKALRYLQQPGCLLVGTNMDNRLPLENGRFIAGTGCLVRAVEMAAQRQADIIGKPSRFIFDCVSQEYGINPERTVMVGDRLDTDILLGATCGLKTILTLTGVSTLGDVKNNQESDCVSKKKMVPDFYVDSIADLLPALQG
UniProt Q9NR12: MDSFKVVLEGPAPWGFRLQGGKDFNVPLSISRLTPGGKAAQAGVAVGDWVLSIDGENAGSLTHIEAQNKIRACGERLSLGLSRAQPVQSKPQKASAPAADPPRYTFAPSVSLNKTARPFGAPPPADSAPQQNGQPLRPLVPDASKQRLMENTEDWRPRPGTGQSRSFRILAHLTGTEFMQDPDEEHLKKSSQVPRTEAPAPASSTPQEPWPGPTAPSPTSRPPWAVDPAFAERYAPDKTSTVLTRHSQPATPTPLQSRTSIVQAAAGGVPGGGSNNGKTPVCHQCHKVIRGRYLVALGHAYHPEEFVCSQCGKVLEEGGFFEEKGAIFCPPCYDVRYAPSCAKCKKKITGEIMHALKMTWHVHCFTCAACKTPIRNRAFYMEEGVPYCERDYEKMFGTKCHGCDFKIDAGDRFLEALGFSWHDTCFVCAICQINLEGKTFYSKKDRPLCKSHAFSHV
UniProt Q14554: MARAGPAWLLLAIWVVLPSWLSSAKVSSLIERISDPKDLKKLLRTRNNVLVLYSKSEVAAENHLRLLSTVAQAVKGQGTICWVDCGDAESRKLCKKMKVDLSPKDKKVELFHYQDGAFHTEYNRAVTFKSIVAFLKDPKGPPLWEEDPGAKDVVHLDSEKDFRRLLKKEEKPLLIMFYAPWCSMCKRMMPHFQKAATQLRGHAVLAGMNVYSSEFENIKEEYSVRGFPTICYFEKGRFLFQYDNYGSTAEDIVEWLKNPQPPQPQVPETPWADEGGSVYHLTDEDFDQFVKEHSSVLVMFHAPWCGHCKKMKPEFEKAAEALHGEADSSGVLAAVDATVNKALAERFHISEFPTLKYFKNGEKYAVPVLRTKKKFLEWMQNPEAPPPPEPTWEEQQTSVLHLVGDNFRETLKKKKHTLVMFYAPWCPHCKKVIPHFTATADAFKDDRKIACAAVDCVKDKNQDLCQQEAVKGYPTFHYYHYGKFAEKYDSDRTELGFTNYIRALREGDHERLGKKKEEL
UniProt Q96HS1, whole entry, looked up: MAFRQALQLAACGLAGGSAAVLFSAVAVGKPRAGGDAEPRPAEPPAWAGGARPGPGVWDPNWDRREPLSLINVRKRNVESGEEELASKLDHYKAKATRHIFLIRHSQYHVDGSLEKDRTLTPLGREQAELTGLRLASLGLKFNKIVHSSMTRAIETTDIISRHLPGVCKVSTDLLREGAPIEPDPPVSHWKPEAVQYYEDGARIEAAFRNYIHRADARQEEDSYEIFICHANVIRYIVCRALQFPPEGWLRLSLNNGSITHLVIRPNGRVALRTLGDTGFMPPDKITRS
UniProt Q15120: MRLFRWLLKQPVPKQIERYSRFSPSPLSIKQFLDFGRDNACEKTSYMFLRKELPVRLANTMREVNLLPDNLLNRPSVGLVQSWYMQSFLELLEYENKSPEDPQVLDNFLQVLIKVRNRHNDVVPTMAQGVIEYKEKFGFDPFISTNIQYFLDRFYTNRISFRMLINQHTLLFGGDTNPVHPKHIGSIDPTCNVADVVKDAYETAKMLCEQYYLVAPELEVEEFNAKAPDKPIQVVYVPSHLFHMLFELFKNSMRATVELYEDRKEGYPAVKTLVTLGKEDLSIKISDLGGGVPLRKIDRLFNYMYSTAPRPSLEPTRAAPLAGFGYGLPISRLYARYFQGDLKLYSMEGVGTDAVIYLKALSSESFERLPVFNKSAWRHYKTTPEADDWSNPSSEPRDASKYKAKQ
UniProt Q86YC2: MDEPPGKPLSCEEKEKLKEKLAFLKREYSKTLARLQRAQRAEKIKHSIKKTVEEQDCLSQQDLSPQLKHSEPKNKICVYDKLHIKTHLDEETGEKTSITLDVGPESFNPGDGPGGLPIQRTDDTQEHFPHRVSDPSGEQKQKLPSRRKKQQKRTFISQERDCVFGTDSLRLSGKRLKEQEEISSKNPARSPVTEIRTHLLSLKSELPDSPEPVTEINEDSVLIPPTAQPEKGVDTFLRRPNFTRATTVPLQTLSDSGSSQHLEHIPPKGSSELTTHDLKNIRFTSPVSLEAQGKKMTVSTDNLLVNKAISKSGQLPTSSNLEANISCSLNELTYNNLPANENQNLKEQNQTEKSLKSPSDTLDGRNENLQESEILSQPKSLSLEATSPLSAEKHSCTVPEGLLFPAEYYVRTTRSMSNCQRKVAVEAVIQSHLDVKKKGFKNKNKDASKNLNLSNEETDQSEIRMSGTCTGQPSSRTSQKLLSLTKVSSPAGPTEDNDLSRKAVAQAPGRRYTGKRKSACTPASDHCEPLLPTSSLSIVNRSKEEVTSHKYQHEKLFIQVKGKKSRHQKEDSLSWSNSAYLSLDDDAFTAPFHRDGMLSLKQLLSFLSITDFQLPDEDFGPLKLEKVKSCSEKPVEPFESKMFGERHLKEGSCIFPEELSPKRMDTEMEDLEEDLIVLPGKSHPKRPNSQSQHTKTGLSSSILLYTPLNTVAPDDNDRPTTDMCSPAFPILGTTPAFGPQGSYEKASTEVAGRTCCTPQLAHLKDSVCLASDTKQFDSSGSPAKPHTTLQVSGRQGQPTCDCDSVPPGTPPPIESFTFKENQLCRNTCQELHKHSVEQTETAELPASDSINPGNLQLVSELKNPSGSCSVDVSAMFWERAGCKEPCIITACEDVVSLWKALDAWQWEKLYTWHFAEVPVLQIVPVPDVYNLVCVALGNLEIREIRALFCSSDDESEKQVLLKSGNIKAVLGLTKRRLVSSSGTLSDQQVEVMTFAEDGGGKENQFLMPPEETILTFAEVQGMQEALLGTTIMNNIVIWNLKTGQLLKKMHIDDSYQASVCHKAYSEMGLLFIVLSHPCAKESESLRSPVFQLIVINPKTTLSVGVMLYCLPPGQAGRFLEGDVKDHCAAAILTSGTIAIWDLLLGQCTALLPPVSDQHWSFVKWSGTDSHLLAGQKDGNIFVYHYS
UniProt O95613: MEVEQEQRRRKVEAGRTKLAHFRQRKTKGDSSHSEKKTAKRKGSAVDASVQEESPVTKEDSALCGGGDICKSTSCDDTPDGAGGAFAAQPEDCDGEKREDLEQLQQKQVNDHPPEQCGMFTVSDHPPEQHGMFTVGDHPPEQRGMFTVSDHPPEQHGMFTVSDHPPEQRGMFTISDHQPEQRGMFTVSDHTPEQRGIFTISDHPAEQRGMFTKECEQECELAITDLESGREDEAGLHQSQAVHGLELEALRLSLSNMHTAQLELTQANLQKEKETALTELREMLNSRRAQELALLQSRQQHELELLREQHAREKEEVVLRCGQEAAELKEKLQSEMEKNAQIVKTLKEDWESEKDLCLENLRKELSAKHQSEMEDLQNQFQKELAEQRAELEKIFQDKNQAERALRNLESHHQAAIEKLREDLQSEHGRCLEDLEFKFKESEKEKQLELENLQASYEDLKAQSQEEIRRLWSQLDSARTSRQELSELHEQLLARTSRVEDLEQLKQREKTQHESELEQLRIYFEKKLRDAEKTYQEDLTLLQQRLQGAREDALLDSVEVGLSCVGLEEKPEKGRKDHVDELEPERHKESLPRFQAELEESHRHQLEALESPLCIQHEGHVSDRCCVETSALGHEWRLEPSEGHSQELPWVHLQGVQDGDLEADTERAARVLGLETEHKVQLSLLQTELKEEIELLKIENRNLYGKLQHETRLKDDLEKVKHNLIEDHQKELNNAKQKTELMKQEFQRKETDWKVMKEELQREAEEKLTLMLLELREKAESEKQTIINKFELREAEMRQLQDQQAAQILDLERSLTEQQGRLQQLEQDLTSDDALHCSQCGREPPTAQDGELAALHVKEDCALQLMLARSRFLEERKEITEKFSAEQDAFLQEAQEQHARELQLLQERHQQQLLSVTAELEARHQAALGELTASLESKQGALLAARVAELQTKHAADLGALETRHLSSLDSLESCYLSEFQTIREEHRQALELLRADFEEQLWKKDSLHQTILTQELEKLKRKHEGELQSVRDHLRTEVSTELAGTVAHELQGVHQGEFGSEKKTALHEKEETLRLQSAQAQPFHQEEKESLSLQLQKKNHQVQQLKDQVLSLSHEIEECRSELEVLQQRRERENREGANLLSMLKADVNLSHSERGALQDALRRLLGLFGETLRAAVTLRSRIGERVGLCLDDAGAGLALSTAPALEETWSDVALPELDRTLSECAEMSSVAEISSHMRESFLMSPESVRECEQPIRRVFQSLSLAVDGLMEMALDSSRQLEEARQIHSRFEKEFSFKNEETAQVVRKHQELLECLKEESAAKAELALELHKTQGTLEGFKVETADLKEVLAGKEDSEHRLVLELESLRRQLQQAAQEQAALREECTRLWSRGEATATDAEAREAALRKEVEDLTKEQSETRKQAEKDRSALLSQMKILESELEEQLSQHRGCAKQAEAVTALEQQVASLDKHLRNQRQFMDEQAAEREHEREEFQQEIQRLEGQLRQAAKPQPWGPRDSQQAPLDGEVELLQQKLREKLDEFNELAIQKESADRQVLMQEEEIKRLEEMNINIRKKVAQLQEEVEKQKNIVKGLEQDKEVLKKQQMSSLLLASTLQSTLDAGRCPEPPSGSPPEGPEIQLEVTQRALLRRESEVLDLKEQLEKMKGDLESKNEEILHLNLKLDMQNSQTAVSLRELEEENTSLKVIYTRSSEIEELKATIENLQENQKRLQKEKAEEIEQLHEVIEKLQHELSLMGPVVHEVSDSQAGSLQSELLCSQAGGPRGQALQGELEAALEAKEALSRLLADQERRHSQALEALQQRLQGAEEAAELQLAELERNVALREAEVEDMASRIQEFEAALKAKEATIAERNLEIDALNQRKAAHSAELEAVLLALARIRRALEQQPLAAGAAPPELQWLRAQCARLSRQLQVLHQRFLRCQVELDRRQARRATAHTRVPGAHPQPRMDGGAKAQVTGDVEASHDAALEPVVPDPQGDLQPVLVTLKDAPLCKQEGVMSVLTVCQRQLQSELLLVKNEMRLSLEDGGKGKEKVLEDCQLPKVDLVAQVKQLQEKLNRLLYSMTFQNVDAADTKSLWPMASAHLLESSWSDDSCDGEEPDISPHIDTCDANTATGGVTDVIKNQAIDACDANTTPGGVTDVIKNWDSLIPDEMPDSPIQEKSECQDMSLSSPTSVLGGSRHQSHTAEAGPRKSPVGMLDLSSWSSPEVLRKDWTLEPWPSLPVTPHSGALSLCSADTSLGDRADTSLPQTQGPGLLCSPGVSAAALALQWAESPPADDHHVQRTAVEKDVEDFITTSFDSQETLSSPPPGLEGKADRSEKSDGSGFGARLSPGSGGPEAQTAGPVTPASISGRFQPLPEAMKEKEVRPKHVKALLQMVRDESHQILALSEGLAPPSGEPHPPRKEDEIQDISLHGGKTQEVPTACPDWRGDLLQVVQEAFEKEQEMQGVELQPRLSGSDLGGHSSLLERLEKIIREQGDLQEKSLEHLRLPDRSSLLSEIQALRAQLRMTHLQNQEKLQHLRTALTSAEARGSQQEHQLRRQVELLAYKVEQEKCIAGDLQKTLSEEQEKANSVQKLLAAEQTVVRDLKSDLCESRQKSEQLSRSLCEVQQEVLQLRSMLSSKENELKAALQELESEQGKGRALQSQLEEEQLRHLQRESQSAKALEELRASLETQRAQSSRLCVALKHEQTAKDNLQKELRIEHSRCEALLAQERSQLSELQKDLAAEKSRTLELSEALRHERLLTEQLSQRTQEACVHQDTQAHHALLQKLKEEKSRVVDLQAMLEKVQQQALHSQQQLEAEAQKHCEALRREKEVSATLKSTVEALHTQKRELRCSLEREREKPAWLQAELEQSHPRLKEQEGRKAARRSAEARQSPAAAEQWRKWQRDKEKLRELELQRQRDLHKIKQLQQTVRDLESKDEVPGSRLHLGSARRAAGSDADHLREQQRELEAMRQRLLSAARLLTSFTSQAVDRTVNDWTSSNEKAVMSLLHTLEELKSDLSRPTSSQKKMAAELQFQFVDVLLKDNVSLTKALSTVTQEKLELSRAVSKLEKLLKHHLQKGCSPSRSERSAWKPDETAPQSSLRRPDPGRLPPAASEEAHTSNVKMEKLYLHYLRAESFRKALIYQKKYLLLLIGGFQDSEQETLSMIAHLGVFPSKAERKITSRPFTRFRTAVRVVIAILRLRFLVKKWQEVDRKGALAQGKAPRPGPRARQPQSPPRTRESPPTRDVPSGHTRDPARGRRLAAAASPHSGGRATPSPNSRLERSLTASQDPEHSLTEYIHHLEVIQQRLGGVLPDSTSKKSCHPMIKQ
UniProt P18669, 142-162: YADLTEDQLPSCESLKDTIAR
UniProt Q16875, 148-169: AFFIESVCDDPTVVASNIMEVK
UniProt Q14432, 519-541: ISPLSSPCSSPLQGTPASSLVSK

Columns and labels:
[1] = compound: ClCC(=O)N[C@@H]1CCCc2ccccc12; test: log2 mean competition ratio of IA-DTB cysteine labelling (DMSO/compound) (log2 ratio); higher = stronger cysteine engagement by compound; details: treatment time: 4 h, cell line lysate: HEK293T
Experimental: (§1)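 IA-DTB competitive cysteine chemoproteomics in HEK293T RIPA lysate. Lysates were treated with compound 29 or 30 at 50 or 200 µM for 4 h, then IA-DTB (500 µM, 1 h), trypsin-digested, NeutrAvidin-enriched and analysed by diaPASEF. Competition ratio = intensity DMSO / intensity compound (n=4 treated, n=64 DMSO); binding: mean log2 CR ≥ 1 and p ≤ 0.05 plus QC filters. Target is the cysteine site.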

[2] = compound: ClCC(=O)N[C@H]1CCCc2ccccc12; test: as above; details: treatment time: 4 h, cell line lysate: HEK293T
Experimental: as §1

| Target | log2 mean competition ratio ([1]; 50 µM) | log2 mean competition ratio ([1]; 200 µM) | log2 mean competition ratio ([2]; 50 µM) | log2 mean competition ratio ([2]; 200 µM) |
| --- | --- | --- | --- | --- |
| OTUD5 C519 (UniProt Q96G74) | 0.485 | 0.0837 | 0.514 | 0.287 |
| PAIP1 C358 (UniProt Q9H074) | -0.0385 | -0.159 | -0.409 | -0.0762 |
| PGP C297 (UniProt A6NDG6) | 0.0277 | 0.00757 | 0.0646 | 0.0586 |
| PCIF1 C626 (UniProt Q9H4Z3) | 0.197 | -0.338 | 0.184 | -0.119 |
| PEX7 C5 (UniProt O00628) | 0.133 | -0.322 | 0.177 | 0.039 |
| PDPK1;PDPK2P C181;(C154) | 0.00173 | 0.0727 | 0.269 | 0.0379 |
| PDLIM7 C388 (UniProt Q9NR12) | -0.19 | -0.294 | 0.253 | -0.175 |
| PGM3 C212 | 0.0454 | -0.166 | -0.112 | -0.0905 |
| PANK3 C308 (UniProt Q9H999) | -0.0144 | -0.132 | -0.07 | -0.0449 |
| PAPOLG C604 (UniProt Q9BWT3) | -0.157 | -0.125 | 0.144 | -0.0829 |
| PGD C402 | -0.129 | -0.17 | -0.325 | -0.0309 |
| PFAS C336 (UniProt O15067) | -0.188 | -0.0409 | -0.255 | -0.0187 |
| PBK C70 (UniProt Q96KB5) | 0.171 | 0.065 | -0.0232 | 0.0655 |
| PDIA5 C465 (UniProt Q14554) | -0.594 | -0.705 | -0.518 | -0.817 |
| PDE1B C282 | -0.0284 | 0.0847 | -0.131 | -0.0092 |
| PCMT1 C102 (UniProt P22061) | -0.000244 | -0.114 | 0.163 | -0.0828 |
| PDLIM1 C307 (UniProt O00151) | -0.496 | 0.339 | -0.106 | 0.328 |
| PDCD4 C350 (UniProt Q53EL6) | 0.158 | -0.417 | 0.272 | -0.564 |
| PDLIM1 C263 (UniProt O00151) | 0.25 | -0.165 | 0.0543 | -0.0889 |
| PEX19 C8 (UniProt P40855) | -0.3 | -0.192 | -0.191 | 0.0201 |
| PARP1 C162 (UniProt P09874) | 0.196 | -0.0373 | 0.0768 | -0.166 |
| PGAM5 C168 (UniProt Q96HS1) | -0.018 | -0.166 | 0.199 | -0.101 |
| PANK4 C4 (UniProt Q9NVE7) | -0.0357 | -0.02 | -0.208 | 0.0277 |

| Target | log2 mean competition ratio ([1]; 50 µM) | log2 mean competition ratio ([1]; 200 µM) | log2 mean competition ratio ([2]; 50 µM) | log2 mean competition ratio ([2]; 200 µM) |
| --- | --- | --- | --- | --- |
| PEAK1 C791 (UniProt Q9H792) | -0.195 | -0.188 | -0.254 | -0.129 |
| PAG1 C355 (UniProt Q9NWQ8) | 0.182 | -0.0575 | -0.227 | 0.0997 |
| PDK3 C191 (UniProt Q15120) | 0.0103 | 0.0678 | -0.00892 | 0.0159 |
| PANK2 C276 (UniProt Q9BZ23) | 0.095 | 0.153 | 0.333 | 0.204 |
| PGP C272 (UniProt A6NDG6) | 0.461 | -0.511 | -0.225 | -0.315 |
| PAPOLA C118 | -0.163 | -0.208 | -0.242 | -0.0915 |
| PDS5A C14 (UniProt Q29RF7) | – | – | 0.116 | 0.236 |
| PGK1 C50 (UniProt P00558) | – | – | 0.669 | 0.289 |
| PDPK1;PDPK2P C327;(C300) | – | – | 0.0538 | -0.141 |
| OXSR1 C53 (UniProt O95747) | – | – | -0.103 | -0.207 |
| PACSIN3 C231 (UniProt Q9UKS6) | – | – | -0.103 | -0.21 |
| PCID2 C152 (UniProt Q5JVF3) | – | – | -0.104 | 0.0215 |
| PATJ C941 | – | – | 0.248 | 0.0137 |
| PACS1 C116 (UniProt Q6VY07) | – | – | 0.0936 | -0.0449 |
| PDS5A C1093 (UniProt Q29RF7) | – | – | -0.306 | 0.105 |
| PALB2 C469 (UniProt Q86YC2) | – | – | -0.115 | 0.342 |
| PBX1 C220 | – | – | -0.411 | 0.18 |
| PDCD4 C288 (UniProt Q53EL6) | – | – | 0.208 | 0.0258 |
| PCM1 C876 (UniProt Q15154) | – | – | -0.0288 | 0.242 |
| PAK2 C390 (UniProt Q13177) | – | – | -0.0354 | -0.223 |
| PANK4 C513 (UniProt Q9NVE7) | – | – | -0.162 | -0.0754 |
| PCIF1 C455 (UniProt Q9H4Z3) | – | – | -0.167 | -0.281 |
| PEAK1 C685 (UniProt Q9H792) | – | – | -0.0897 | 0.19 |

| Target | log2 mean competition ratio ([1]; 50 µM) | log2 mean competition ratio ([1]; 200 µM) | log2 mean competition ratio ([2]; 50 µM) | log2 mean competition ratio ([2]; 200 µM) |
| --- | --- | --- | --- | --- |
| PGM1 C160 (UniProt P36871) | – | – | -0.149 | -0.148 |
| PGM2L1 C125 (UniProt Q6PCE3) | – | – | 0.179 | 0.0794 |
| P3H4 C101 (UniProt Q92791) | – | – | -0.156 | 0.102 |
| PABPN1 C205 (UniProt Q86U42) | – | – | 0.274 | -0.0327 |
| PARN C169 (UniProt O95453) | – | – | -0.114 | 0.00905 |
| PEPD C482 (UniProt P12955) | – | – | -0.332 | 0.753 |
| PCNT C2446 (UniProt O95613) | – | – | 0.148 | 0.0665 |
| PAPSS1 C360 (UniProt O43252) | – | – | 0.113 | 0.461 |
| PEX11B C153 (UniProt O96011) | – | – | -0.0252 | 0.108 |
| PAN3 C259 (UniProt Q58A45) | – | – | -0.0275 | 0.252 |
| PCNA C162 (UniProt P12004) | – | – | -0.108 | -0.0705 |
| PGAM1 C153 (UniProt P18669) | – | – | -0.00951 | 0.0828 |
| PABPC4 C472 (UniProt Q13310) | – | – | 0.00759 | 0.125 |
| PAIP1 C470 (UniProt Q9H074) | – | – | -0.381 | 0.0255 |
| PFKFB3 C155 (UniProt Q16875) | – | – | -0.395 | -0.0803 |
| PAG1 C179 (UniProt Q9NWQ8) | – | – | -0.109 | 0.205 |
| PCBP2 C158 | – | – | -0.116 | -0.226 |
| PARK7 C46 (UniProt Q99497) | – | – | -0.0485 | -2.04 |
| PGP C217 (UniProt A6NDG6) | – | – | 0.889 | 0.147 |
| PCK2 C325 (UniProt Q16822) | – | – | 0.336 | 0.118 |
| PDE3A C526 (UniProt Q14432) | – | – | 0.179 | 0.494 |

Copied from the entries so far for reference:

| Target | log2 mean competition ratio ([1]; 50 µM) | log2 mean competition ratio ([1]; 200 µM) | log2 mean competition ratio ([2]; 50 µM) | log2 mean competition ratio ([2]; 200 µM) |
| --- | --- | --- | --- | --- |
| PABPN1 C205 (UniProt Q86U42) | – | – | 0.274 | -0.0327 |
| PARN C169 (UniProt O95453) | – | – | -0.114 | 0.00905 |
| PEPD C482 (UniProt P12955) | – | – | -0.332 | 0.753 |
| PCNT C2446 (UniProt O95613) | – | – | 0.148 | 0.0665 |
| PAPSS1 C360 (UniProt O43252) | – | – | 0.113 | 0.461 |
